These are yes or no findings as the source states them, for the method shown. In cells and extracts the contact can be indirect. A result given as binding can be weak or reduced; the word gives no strength. Sequences can lack the tags named with a protein.
Target: T1, HNF4A (partner of the HDAC3 truncations in the GST pull-down) (UniProt P41235)
T1 sequence: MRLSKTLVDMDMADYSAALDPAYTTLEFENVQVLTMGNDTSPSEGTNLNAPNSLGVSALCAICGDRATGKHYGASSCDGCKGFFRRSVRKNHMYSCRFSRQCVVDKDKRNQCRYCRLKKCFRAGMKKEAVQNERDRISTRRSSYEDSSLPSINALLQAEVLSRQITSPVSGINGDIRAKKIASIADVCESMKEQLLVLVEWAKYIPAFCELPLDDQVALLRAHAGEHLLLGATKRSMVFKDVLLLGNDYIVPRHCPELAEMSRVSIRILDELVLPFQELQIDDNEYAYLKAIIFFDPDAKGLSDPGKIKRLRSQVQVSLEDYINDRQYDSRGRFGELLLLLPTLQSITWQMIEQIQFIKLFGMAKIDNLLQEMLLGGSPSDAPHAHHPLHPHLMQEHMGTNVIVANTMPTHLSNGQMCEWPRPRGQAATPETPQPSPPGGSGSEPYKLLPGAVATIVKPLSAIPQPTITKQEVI
Test: pull-down; 5 µg GST-tagged protein with 85 µL 293T whole-cell lysate in 600 µL TAP buffer (50 mM Tris-HCl pH 7.5, 200 mM NaCl, 0.1% Triton X-100, 10% glycerol), 4 °C 2–3 h, glutathione-sepharose beads, immunoblot; which partner carried GST is told only for GST-HDAC3-DAD; only the target purified

Substance: HDAC3 N-terminus containing the deacetylase-activating domain (DAD) (domain or fragment)
- binding: binds

Source: paper PMC12780113
